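Viability assay of Plasmodium falciparum sporozoites; the read-out is not stated. The concentration is filed as 10 mM, unlikely as a test dose, so the dose is not known. Direction is inferred from retests: higher values go with lower viability. Strong results were mostly tested again. Size under these conditions: about 34,000 compounds, about 280 of them at 50% or above in at least one test.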

Results are given as percent effect.
The record does not define 0% and 100%; most values in the screen are far below 50% and negative numbers occur (in some assays of this library far below -100).
Compounds were drawn at random from those tested, without regard to their results.
Two or more numbers in one place are separate tests of the same structure; such repeats can differ widely.

Compound,Percent Effect
CC(=O)N1CCCN(C(=O)c2oc(Br)cc2C)CC1,-9.059
CN1CC=C(c2noc(CCC(=O)N3CCCC3)n2)CC1,-11.53
CC(C)c1nc(CN(C)C2CCN(CCc3ccncc3)C2)no1 (stereo unspecified),-1.013
O=C(O)c1ccccc1-n1cc(CN2CCC(c3cc[nH]n3)C2)cn1 (stereo unspecified),8.805
O=C(Nc1nnc(C2CC2)s1)NC1CCN(Cc2ccccc2)C1 (stereo unspecified),5.153
CN1CCC(c2cccc(NCc3nccn3C)n2)CC1,4.151 and -3.748 and -15.94
CCN1CCN(C)C(=O)C12CCN(Cc1cccc(C)c1)CC2.O=C(O)C(F)(F)F,10.78
N#Cc1cccc(C(=O)N2CCn3c(Cn4cncn4)cnc3C2)c1,10.29
NCc1n[nH]c(=O)n1-c1cccc(Cl)c1Cl,-16.46
O=C(NCc1cnc2n1CCN(CC1CC1)C2)C1CC1.O=C(O)C(F)(F)F,12.02
CCOc1ccccc1C(=O)NS(=O)(=O)c1ccc2c(c1)OCCCO2,4.482
COc1cc(NC(=O)c2cc(Cl)ccc2F)c(C(=O)N(C)C)cc1OC,3.431
COCCCNC(=O)c1ccn(-c2ccc3ccccn23)n1,11.68
O=C(CN1CCCCC1Cn1cncn1)NCCc1ccc(F)cc1 (stereo unspecified),-6.826
Cc1cc(C2CCCN(CCCS(C)(=O)=O)C2)n[nH]1 (stereo unspecified),10.19
Cc1nc(CN2CCCC(NCCCc3ccccc3)C2)no1 (stereo unspecified),11.86
Cc1nc(C)c(C(=O)N2CCC(Nc3cccnc3)CC2)s1,-16
COc1ncnc(N(C)C)c1NC(=O)Cc1cc(F)ccc1F,-10.23
Cc1cccc(CN2CC3(CCN(C4CCOC4)CC3)OCC2=O)n1.O=C(O)C(F)(F)F.O=C(O)C(F)(F)F (stereo unspecified),28.68 and -30.87 and -22.22
c1cc(-c2nnn3c2COC(CNCc2nccs2)C3)ccn1 (stereo unspecified),2.351
N#Cc1cc(NC(=O)C2CC=CC2)ccc1N1CCC(O)CC1,-20.59
COc1cc(C(=O)NS(=O)(=O)c2cccc(C#N)c2)ccc1C,4.595
CC(C)c1nc2c(n1C)CCN(CCCOc1ccc(C#N)cc1)C2,9.669
c1cnnc(N2CCCC(NCc3nc(-c4ccco4)no3)C2)c1 (stereo unspecified),20.29
O=C(O)C(F)(F)F.O=C(O)C(F)(F)F.[H][C@@]12OCCN(Cc3ccc(OC)cc3)[C@@]1([H])CC[C@H]2OCc1ccncc1,5.267
COc1ccc(OC)c(C(O)CNC(=O)Nc2cccnc2OC)c1 (stereo unspecified),6.342
CN(C)CC1CN(Cc2csc(C3CCCC3)n2)CCO1 (stereo unspecified),14.26
CC1CCN(S(=O)(=O)NCCCn2cncn2)CC1,-0.716
Cn1cc(CN2CCOC3(CCCN(c4cccc(F)c4)C3)C2)cn1.O=C(O)C(F)(F)F.O=C(O)C(F)(F)F (stereo unspecified),-3.559
COc1cccc(-c2nccc(C3CCCN3C)n2)c1 (stereo unspecified),9.463
COc1c(CNCC(O)c2ccccc2F)c(C(C)C)nn1C (stereo unspecified),-1.692
O=C(O)C(F)(F)F.O=C(O)C(F)(F)F.O=C(c1ccncc1F)N1Cc2nc(CN3CCCCC3)oc2C1,-0.4259
Clc1ccc2nncc(N3CCCCC3)c2c1,2.612
CSc1ccc(-c2nc(CN3CCC(CN)C3)c(C)o2)cc1 (stereo unspecified),-0.7455 and -7.424 and -17.76
O=C(O)C(F)(F)F.c1coc(CN2CCC3(CCOCC3COCC3CC3)CC2)c1 (stereo unspecified),4.619
CC(CCc1ccco1)NC(=O)Nc1cc(C(F)(F)F)c[nH]c1=O (stereo unspecified),-6.927
CN(C)CC(=O)N1CCCC1c1cncc(Oc2ccc(F)cc2)n1 (stereo unspecified),19.59
O=C(O)C(F)(F)F.[H][C@@]12CCN(CC3CC3)[C@@]1([H])CCN2C(=O)c1ccc(F)cc1,15.85
CNc1cc(CCNC(=O)C2CCCC2)nc(-c2ccccn2)n1,-0.6966
O=C(O)C(F)(F)F.O=C1N(Cc2cccc(F)c2)CCC12CCN(c1ccccn1)CC2,4.816
Cc1ccc(CC(=O)N2CCN(CC(C)O)CC2)cn1 (stereo unspecified),-0.7613
c1cc(CNCC2CNc3ccnn3C2)cc(N2CCCCC2)n1 (stereo unspecified),-5.728
N#Cc1cccc(CN2CCCC2Cn2cccn2)c1 (stereo unspecified),7.714
[H][C@@]12CN(C(=O)c3cccn3C)C[C@]1([H])C(=O)N(CC)C2,-7.07
CC(NC(=O)c1nc(=O)[nH][nH]1)c1ccc(OCC2CC2)c(F)c1 (stereo unspecified),-14.32
CN(C)C(=O)C1CCC2(CCN(C(=O)Nc3cccc(F)c3)CC2)O1 (stereo unspecified),-8.945
Cc1csc2nc3n(c(=O)c12)CCN(C(=O)c1ccncc1)CC3,1.303
O=C(O)C(F)(F)F.[H][C@@]12CCN(CCc3ccccc3)C[C@]1([H])[C@@H](CNS(C)(=O)=O)OC2,10.92
O=C(Nc1ccc(-c2csnn2)cc1)NC(CCO)C1CC1 (stereo unspecified),11.33
CN(C)c1ccc(C(=O)N2CCCN(Cc3cnn(C)c3)CC2)nn1,-1.596
CCC(C)(NCC(=O)Nc1ccccc1)c1nc(C)cs1 (stereo unspecified),1.153
CCC(CC)c1cc(CNC(=O)N2CCOCC2CC)on1 (stereo unspecified),-3.922
O=C(NC1CCS(=O)(=O)c2ccccc21)c1cccs1 (stereo unspecified),-26.65 and -12.4
Cc1[nH]ccc1C(=O)Nc1cccc(CN2CCC(O)CC2)c1,11.84
CC1(C)COCCN1C(=O)Cc1csc(Cc2ccccn2)n1,-10.29
Cn1cc(-c2nc(CN3CCOC(Cn4cncn4)C3)cs2)cn1 (stereo unspecified),1.761 and -12.84 and -8.516
CC(=O)c1cccc(OCC(=O)NS(=O)(=O)c2ccc(C)s2)c1,6.826
CCC(C)NC(=O)c1ccccc1-n1cnnn1 (stereo unspecified),2.146
COc1ccc(Cc2nnc(SC)o2)cc1OC,-0.6438
Cc1noc(C)c1-c1cccc(C2CCN(S(=O)(=O)N(C)C)CC2)n1,-0.06416
O=C(O)C(F)(F)F.[H][C@@]12C[C@H](C(=O)Nc3ccccc3)[C@@]([H])(CN(CC)C1)O2,-10.4
O=C(O)C(F)(F)F.O=C(O)C(F)(F)F.c1cc2nc(C3CCN(CC4CC4)CC3)nn2cc1N1CCCC1,-0.2806
Cc1cc(C)n(C2CCN(S(=O)(=O)N3CCOCC3)CC2)n1,-2.027
COCc1nccc(C2CCCN(Cc3cccc(C#N)c3)C2)n1 (stereo unspecified),-21.71
Cc1ccc2oc(SCC(=O)NC(C)(C)C)nc2n1,-8.084
COCC(c1cccc(C(F)(F)F)c1)N(C)C(=O)c1cccnc1 (stereo unspecified),9.699
Cc1cc(C)nc(Nc2nccnc2C2CCCN(C(C)C)C2)n1 (stereo unspecified),-3.868
Cc1nc(C)n(C2CCCN(C(=O)CCOc3cccc(F)c3)C2)n1 (stereo unspecified),5.921
CN(C)c1nccc(C2CN(c3ccccc3)CCO2)n1 (stereo unspecified),4.312
CCn1c(C)cc(C(=O)N2C[C@@H](C(=O)O)[C@H](c3ccccc3C)C2)c1C,0.7493 and -7.067

Some entries from above, unchanged:

For CCC(C)NC(=O)c1ccccc1-n1cnnn1 (stereo unspecified) the result was 2.146%.
For CNc1cc(CCNC(=O)C2CCCC2)nc(-c2ccccn2)n1 the result was -0.6966%.
For CN(C)C(=O)C1CCC2(CCN(C(=O)Nc3cccc(F)c3)CC2)O1 (stereo unspecified) the result was -8.945%.
For CN(C)c1nccc(C2CN(c3ccccc3)CCO2)n1 (stereo unspecified) the result was 4.312%.
For CCn1c(C)cc(C(=O)N2C[C@@H](C(=O)O)[C@H](c3ccccc3C)C2)c1C the result was 0.7493% and -7.067%.
For COc1cc(NC(=O)c2cc(Cl)ccc2F)c(C(=O)N(C)C)cc1OC the result was 3.431%.
For O=C(O)C(F)(F)F.O=C1N(Cc2cccc(F)c2)CCC12CCN(c1ccccn1)CC2 the result was 4.816%.

Data taken from ChEMBL document CHEMBL3988442, “University of Dundee, Small-Polar-MMV Screening Library” (2021).